# Measured values from PubChem BioAssay AID504444 (National Center for Advancing Translational Sciences (NCATS), 2011).
# In all, about 360,000 compounds went through this assay and about 7,500 (2.1%) were called active. Inconclusive results, whose numbers are uncertain, are shown with a selection of clear calls. The call rests on the fitted dose curve; in most records, active means well fitted inhibition curve with a large enough effect; inconclusive means small, poorly fitted or top-dose-only effect, or effect the other way; inactive means flat fitted curve, though single readings scatter. A potency beside an inconclusive call is a rough fit, not a confirmed value.
# Assay: Nrf2 qHTS screen for inhibitors; further: nearly all actives have a fitted effect of over 60% in size
# Conditions: A549 ARE-Fluc reporter, luciferase luminescence, 18-24 h; activity change, negative = inhibition: at 46 µM (top of the series)
# How it was run: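 A549 ARE_Fluc cells (5000/well, 5% FBS OPTI-MEM) pre-incubated 2 h, then treated with compounds 18-24 h at 37C/5% CO2 in concentration-response. CellTiter-Fluor viability read first; BugLite luciferase luminescence after 15 min at room temperature gives Nrf2 activity.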
# On the % scale 0 is the no-effect control and ±100 the full control effect; potency means the concentration at half of the fitted maximal effect.
SMILES,"activity change, negative = inhibition",Potency
O=S(=O)(c1ccc(NC(=S)N/N=C/c2cccc(Oc3ccccc3)c2)cc1)N1CCOCC1,inactive: -21.4%,–
COc1ccc(C2C(C(=O)Nc3ccccc3)=C(C)Nc3nc(-c4ccccc4Cl)nn32)cc1OC (centres undefined),–,"inconclusive: 2.31 µM [falling, full curve, poor fit]"
Cc1nn(Cc2c(F)c(F)c(F)c(F)c2F)c(C)c1NC(=O)c1c(-c2ccccc2)nn(-c2ccccc2)c1C,–,"inconclusive: 1.46 µM [falling, full curve, poor fit]"
CCOCCCNc1nc2cc(OC)c(OC)cc2c2nc(-c3ccccc3)nn12,inactive: 0.45%,–
C/C(COc1ccccc1)=N\NC(=O)c1nnn(-c2nonc2N)c1CSc1ccccc1,–,"inconclusive: 0.0058 µM [falling, full curve, poor fit]"
Cc1cccc(NS(=O)(=O)c2ccc3nc(-c4ccccc4)[nH]c3c2)c1C,–,"inconclusive: 29.1 µM [falling, single point]"
CCn1c(SCC(=O)N2CCN(c3ccc(F)cc3)CC2)nc2ccccc2c1=O,inactive: 0.337%,–
Cc1ccccc1-c1ocnc1C(=O)Nc1ccccc1NC(=O)c1ccccn1,inactive: -3.88%,–
Cc1ccc2oc(-c3ccc(C)c(NC(=O)Cc4cccs4)c3)nc2c1,–,"inconclusive: 23.1 µM [activator, partial curve, poor fit]"
COc1cccc(CN(C)CC(=O)NCc2ccccc2Cl)c1OC,–,"inconclusive: 6.51 µM [activator, partial curve, poor fit]"
CC(C)OC(=O)CCC1(C(=O)O)CCC(=O)NC1 (centres undefined),–,"inconclusive: 20.6 µM [falling, single point]"
Cc1cccc(OC(=O)C2C(c3ccccc3)C(C(=O)O)C2c2ccccc2)c1 (centres undefined),–,"inconclusive: 20.6 µM [falling, partial curve, poor fit]"
Fc1cccc(Cl)c1Cc1noc(/C=C/c2ccccc2)n1,–,"inconclusive: 23.1 µM [activator, partial curve]"
Clc1ccccc1Nc1ncnc2c1nc1n2CCCCC1,–,"inconclusive: 1.64 µM [activator, full curve]"
CC1CCCC(C)N1/N=C/c1ccc(N(C)C)cc1 (centres undefined),–,"inconclusive: 20.6 µM [activator, partial curve, poor fit]"
COc1ccc2[nH]c3c(c2c1)CCN1C(=O)C(CC(=O)NCc2cccc(C(F)(F)F)c2)C[C@H](C(=O)N(C(C)C)C(C)C)[C@@]31C (some centres undefined),–,"inconclusive: 16.4 µM [falling, single point]"
COc1ccc(N2C(=S)N=C(Nc3ccccc3)C23CCCCC3)cc1,–,"inconclusive: 18.4 µM [falling, single point]"
COc1ccc(OCC(O)CNC(=O)Nc2cccc3ccccc23)cc1 (centres undefined),–,"inconclusive: 14.6 µM [falling, single point]"
Clc1ccc(Nc2nc(NCc3ccco3)nc3nccnc23)cc1,inactive: 12.4%,–
COc1cccc(NC(=O)Nc2ccc3c(c2)N(C)C(=O)CS3)c1,–,"inconclusive: 23.1 µM [falling, single point]"
CC(C)c1ccccc1OCCNC(=O)c1cccnc1,–,"inconclusive: 23.1 µM [falling, partial curve, poor fit]"
COc1ccc2[nH]c(=O)c(CN(Cc3cccnc3)Cc3nnnn3CC3CCCO3)cc2c1 (centres undefined),inactive: 12.5%,–

# An excerpt from above in order of length of the SMILES, falling.
SMILES,"activity change, negative = inhibition",Potency
Cc1cccc(NS(=O)(=O)c2ccc3nc(-c4ccccc4)[nH]c3c2)c1C,–,"inconclusive: 29.1 µM [falling, single point]"
CCOCCCNc1nc2cc(OC)c(OC)cc2c2nc(-c3ccccc3)nn12,inactive: 0.45%,–
Clc1ccc(Nc2nc(NCc3ccco3)nc3nccnc23)cc1,inactive: 12.4%,–

# Continuation.

SMILES,"activity change, negative = inhibition",Potency
Cc1noc(C)c1C(=O)Nc1nc(-c2cc(F)ccc2F)cs1,–,"inconclusive: 23.1 µM [activator, partial curve]"
COc1ccccc1CNS(=O)(=O)c1ccc(-n2cccn2)cc1,–,"inconclusive: 20.6 µM [falling, partial curve]"
CC1CCN(C(=O)COC(=O)C23CC4CC(CC(O)(C4)C2)C3)CC1,–,"inconclusive: 23.1 µM [activator, single point]"
O=C(COc1ccc(S(=O)(=O)N2CCOCC2)cc1)N1CCN(c2ccccc2)CC1,–,"inconclusive: 16.4 µM [falling, partial curve]"
O=C(Cc1cccs1)NCc1ccc(Cl)cc1,–,"inconclusive: 20.6 µM [activator, partial curve, poor fit]"
COC(=O)c1ccc(OCC(=O)Nc2nn(-c3ccccc3)nc2C(N)=O)cc1,–,"inconclusive: 25.9 µM [activator, single point]"
COc1ccc2c(c1)cc1c(=O)n(CC(=O)NCCc3ccccc3)nc(C)n12,inactive: 2.21%,–
CCOC(=O)Cc1ccc(NC(=O)N2CC(C)Oc3ccc(Cl)cc32)cc1 (centres undefined),inactive: 53.3%,–
COc1cc([N+](=O)[O-])c2ncccc2c1,inactive: -2.81%,–
CCC(C)(C)NC(=O)CN(Cc1ccc(OC)cc1)C(=O)CCC(=O)Nc1nccs1,–,"inconclusive: 0.164 µM [falling, full curve, poor fit]"
Cc1ccc(S(=O)(=O)N2CCOCC2)cc1C(=O)N(Cc1nnc(-c2ccccc2Cl)o1)C1CC1,–,"inconclusive: 13 µM [falling, partial curve, poor fit]"
O=C(Nc1cccc(Br)c1)c1cc(-c2ccc3c(c2)OCCO3)on1,–,"inconclusive: 0.291 µM [activator, full curve, poor fit]"
C=CCSc1nc(N)c2c3c(sc2n1)CN(C)CC3,–,"inconclusive: 32.6 µM [falling, single point]"
CC(=O)Nc1ccc(Nc2nc3ccccc3n3cnnc23)cc1,–,"inconclusive: 5.8 µM [falling, partial curve]"
COc1ccc(CCNC(=O)c2ccc(CS(=O)(=O)c3ccc(Br)cc3)o2)cc1OC,–,active: 4.11 µM
CCn1nnc(NC(=O)c2ccc(-c3ccc(Cl)cc3)o2)n1,–,"inconclusive: 18.4 µM [activator, partial curve, poor fit]"
CCN1CCN(CCCN(Cc2ccco2)C(=S)Nc2ccc(Cl)cc2)CC1,–,"inconclusive: 16.4 µM [falling, single point]"
Cn1nc(-c2ccc(N3CCOCC3)c(NS(=O)(=O)c3ccc(Cl)cc3)c2)c2ccccc2c1=O,–,"inconclusive: 32.6 µM [falling, single point]"
Cc1ccc(NC(=O)N/C=C/c2ccco2)cc1,–,"inconclusive: 6.51 µM [activator, single point]"
O=c1[nH]c(CSc2nc3ccccc3[nH]2)nc2c1cnn2-c1ccccc1,–,active: 14.6 µM
Cn1c(=O)c2c(SCC(=O)NCC3CCCO3)nc(CC(C)(C)C)nc2n(C)c1=O (centres undefined),–,"inconclusive: 16.4 µM [falling, single point]"
CC(=O)Nc1cc2c(c([N+](=O)[O-])c1C)C(C)(C)CC2(C)C,–,"inconclusive: 8.2 µM [falling, partial curve, poor fit]"

SMILES,"activity change, negative = inhibition",Potency
CCCc1nn(C)c(C(=O)Nc2ccc3ccccc3c2)c1Cl,–,"inconclusive: 18.4 µM [activator, partial curve]"
COc1cc2[nH]c(=O)n(CCCCCC(=O)N3CCN(c4ccc(Cl)cc4)CC3)c(=O)c2cc1OC,–,"inconclusive: 3.26 µM [falling, partial curve, poor fit]"
O=c1c2cc(NC(=S)NCCN3CCCCCC3)ccc2nc2n1CCCCC2,–,"inconclusive: 29.1 µM [activator, single point]"
CC(C)(C)OC(=O)N[C@@H](Cc1ccccc1)c1nnc(S(=O)(=O)Cc2cccc(F)c2)o1,–,"inconclusive: 20.6 µM [falling, single point]"
COc1ccc(NC(=O)CSc2nc(C)cc(C)n2)c([N+](=O)[O-])c1,–,"inconclusive: 29.1 µM [falling, partial curve, poor fit]"
CC(=O)C1=C(O)C(=O)OC1c1ccc(Cl)cc1 (centres undefined),–,"inconclusive: 1.3 µM [activator, full curve, poor fit]"
Cc1ccc(CNC(=O)CN(c2cc(C)cc(C)c2)S(=O)(=O)c2c(C)noc2C)cc1,inactive: 20.7%,–
CNC(=O)CO/N=C/c1ccc(N(C)C)cc1,–,"inconclusive: 29.1 µM [activator, single point]"
Cc1nc2cc(-c3ccccc3)nn2c(C)c1CCC(=O)NCc1cccc(Cl)c1,–,"inconclusive: 10.3 µM [falling, partial curve]"
O=C(c1cccs1)N1CCCC(c2nc3c(nnn3Cc3cccc(Cl)c3)c(=O)[nH]2)C1 (centres undefined),–,"inconclusive: 14.6 µM [activator, partial curve]"
CN(c1ccccc1)S(=O)(=O)c1cccc(C(=O)NC2CCCC2)c1,inactive: -17.4%,–
COc1ccc(CNC(=O)c2nc(S(=O)(=O)Cc3ccccc3)ncc2Cl)cc1,–,active: 18.4 µM
Cc1ccc2nc3c(cc(C#N)c(=O)n3-c3nccs3)c(=O)n2c1,–,"inconclusive: 29.1 µM [activator, single point]"
Cc1cccc(N2CCN(C(=O)CCCCCn3c(=S)[nH]c4ccc(N5CCOCC5)cc4c3=O)CC2)c1C,–,"inconclusive: 20.6 µM [falling, single point]"
Cc1ccccc1NC(=S)N(Cc1ccccn1)Cc1ccccc1Cl,–,"inconclusive: 32.6 µM [falling, partial curve, poor fit]"
CC(C)(C)c1cc(C(=O)NN)n(Cc2ccc(Cl)cc2Cl)n1,inactive: -13.1%,–
CCOc1ccccc1-n1c(SCC(=O)Nc2nccs2)nnc1-c1ccoc1C,–,"inconclusive: 6.51 µM [falling, single point]"
N#Cc1cc2[nH]c3ccccc3c2[n+](-c2ccc([N+](=O)[O-])cc2)c1N,–,"inconclusive: 25.9 µM [falling, single point]"
O=C(Nc1ccc2nc3n(c(=O)c2c1)CCCCC3)C(=O)N1CCN(c2ccc(F)cc2)CC1,–,"inconclusive: 20.6 µM [falling, single point]"
Cn1c(=O)n(CCCOc2ccc(Br)cc2)c2ccccc21,–,"inconclusive: 2.91 µM [falling, partial curve, poor fit]"
